Assay results taken from patent US20180362485A1, “N-HYDROXYFORMAMIDE COMPOUNDS AND COMPOSITIONS COMPRISING THEM FOR USE AS BMP l, TLL1 AND/OR TLL2 INHIBITORS” (GlaxoSmithKline Intellectual Property (No. 2) Limited, priority 2015, published 2018).
Some entries share one result that the patent states for a list of compounds.

Assay: Human plasma stability assay
Conditions: 37° C., within 24 hours

For `CCCCC[C@@H](C(=O)NCNC(=O)c1ccc(-c2cc(OCC)cc(P(=O)(O)O)c2)o1)[C@@H](CC)N(C=O)OC(=O)c1ccccc1OC(=O)N(C)C` [Example 31, (3-(5-((((R)-2-((R)-1-(N-((2-((dimethylcarbamoyl)oxy)benzoyl)oxy) formamido)propyl)heptanamido)methyl)carbamoyl)furan-2-yl)-5-ethoxyphenyl) phosphonic acid], the “conversion to a BMP1, TLL1 and/or TLL2 inhibitor in human plasma” value was “convert to a BMP1, TLL1 and/or TLL2 inhibitor within 24 hours”.
In the case of `CCCCC[C@@H](C(=O)NCNC(=O)c1ccc(-c2ccc(C(=O)N[C@@H](CC(=O)O)C(=O)O)c(OCC(=O)O)c2)o1)[C@@H](CC)N(C=O)OC(=O)c1ccccc1OC(=O)N(C)C` [Example 32, (S)-2-(2-(carboxymethoxy)-4-(5-((((R)-2-((R)-1-(N-((2-((dimethylcarbamoyl)oxy)benzoyl)oxy)formamido)propyl)heptanamido)methyl)carbamoyl)furan-2-yl)benzamido) succinic acid], the “conversion to a BMP1, TLL1 and/or TLL2 inhibitor in human plasma” value is reported as “convert to a BMP1, TLL1 and/or TLL2 inhibitor within 24 hours”.
For `CCCCC[C@@H](C(=O)NCNC(=O)c1ccc(-c2ccc(C(=O)N[C@@H](CC(=O)O)C(=O)O)c(OCC)c2)o1)[C@@H](CC)N(C=O)OC(=O)c1c(C)cccc1OP(=O)(O)O` [Example 201, (S)-2-(2-ethoxy-4-(5-((((R)-2-((R)-1-(N-((2-methyl-6-(phosphonooxy)benzoyl)oxy) formamido)propyl)heptanamido)methyl)carbamoyl)furan-2-yl)benzamido) succinic acid], the “conversion to a BMP1, TLL1 and/or TLL2 inhibitor in human plasma” value was “convert to a BMP1, TLL1 and/or TLL2 inhibitor within 24 hours”.
